Source: the supplement of paper PMC8166895
Values joined by “and” are separate entries in the source; they are usually repeats but may differ in a detail not shown here. Equal entries are not always repeated. Structures can show the parent of a compound that is named as a salt. The list shows a part of the results. Most entries show no effect beyond the scatter of the controls.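 A single-replicate pilot screen of approved drugs and clinical or known-target compounds measured melting temperature via differential scanning fluorimetry. Top stabilizing hits raised the melting point by 2 °C or more; negative shifts indicate destabilization.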

Test system: SARS-CoV-2 main protease (Mpro, nsp5)
Assay: thermal shift ΔTm of Mpro relative to plate average Tm; higher = stronger thermal stabilization of Mpro (binding)
Details: 10 µM; protein concentration 1 µM

Structure (SMILES) | thermal shift ΔTm of Mpro
C/C=C(/C(=C/C)c1ccc(O)cc1)c1ccc(O)cc1 [Dienestrol] | -0.228 °C
COc1ccc2cc([C@H](C)C(=O)O)ccc2c1 [Naproxen] | 0.0316 °C and 0.0283 °C
N#Cc1cc(CN2CCC(Nc3ncnc4sc(Cl)cc34)CC2)ccc1F | -0.133 °C
C[C@]12CCC(=O)C=C1[C@@H]1C[C@@H]1[C@H]1[C@@H]3[C@@H]4C[C@@H]4[C@@]4(CCC(=O)O4)[C@@]3(C)CC[C@@H]12 [Drospirenone] | -0.0788 °C
Nc1c(C(=O)Nc2ccc(F)cc2)sc2nc(-c3cccs3)cc(C(F)(F)F)c12 | -0.103 °C
IC12CC3CC(CC(C3)C1)C2 | 0.0675 °C
CC1(C)S[C@@H]2[C@H](NC(=O)[C@H](N)c3ccccc3)C(=O)N2[C@H]1C(=O)O [Ampicillin Trihydrate] | -0.122 °C
CC1(C)S[C@@H]2[C@H](NC(=O)[C@H](N)c3ccccc3)C(=O)N2[C@H]1C(=O)O [Ampicillin sodium] | 0.133 °C
C=C[C@H]1CN2CC[C@H]1C[C@H]2[C@H](O)c1ccnc2ccc(OC)cc12 [Quinine HCl Dihydrate] | 0.0693 °C
CC(=O)NCCCCCC(=O)O [Acexamic Acid] | 0.198 °C
O=C(O)c1cc(=O)[nH]c(=O)[nH]1 [Orotic acid (6-Carboxyuracil)] | -0.108 °C
CC[C@@H]1CN(C(=O)NCC(F)(F)F)C[C@@H]1c1cnc2cnc3[nH]ccc3n12 [Upadacitinib] | -0.00845 °C
Cc1ccccc1C(C(=O)NC1CCCCC1)N(C(=O)Cn1ccnc1C)c1cccc(F)c1 (stereo not given) | -0.0775 °C
Cc1ccc(C(=O)Nc2ccc(CN3CCN(C)CC3)c(C(F)(F)F)c2)cc1C#Cc1cnc2[nH]ncc2c1 | 0.0385 °C
Oc1ccc(-c2nc(-c3ccc(F)cc3)c(-c3ccncc3)[nH]2)cc1 | 0.342 °C
COc1ccc2c(c1)[C@]13CCCC[C@@H]1[C@H](C2)N(C)CC3 [Dextromethorphan HBr monohydrate] | 0.351 °C
Cc1ccc(-n2nc(C(C)(C)C)cc2NC(=O)NCc2cc(F)ccc2Oc2ccc3c(cnn3CCO)c2)cc1 [Pexmetinib (ARRY-614)] | 0.125 °C
O=C(NC[C@H](O)CO)c1ccncc1Nc1ccc(I)cc1F | 0.343 °C
CCC(NC(C)C)C(O)c1ccc(O)c2[nH]c(=O)ccc12 (stereo not given) [Procaterol hydrochloride] | -0.116 °C
C#Cc1cccc(Nc2ncnc3cc(OCCOC)c(OCCO)cc23)c1 | -0.042 °C
CC[C@H](CC#N)OC(=O)N[C@@H](C)c1cccc(NC(=O)Nc2ccc(-c3cnco3)c(OC)c2)c1 | 0.00477 °C
Cn1cnc2c(F)c(Nc3ccc(Br)cc3F)c(C(=O)NOCCO)cc21 | -0.0424 °C
Nc1ccc(-c2cnc(N)c(-c3ccc(Cl)cc3)c2)cn1 | -0.0273 °C

Rewritten with tabs: entries from further up.
Structure (SMILES)	thermal shift ΔTm of Mpro
C[C@]12CCC(=O)C=C1[C@@H]1C[C@@H]1[C@H]1[C@@H]3[C@@H]4C[C@@H]4[C@@]4(CCC(=O)O4)[C@@]3(C)CC[C@@H]12 [Drospirenone]	-0.0788 °C
Nc1c(C(=O)Nc2ccc(F)cc2)sc2nc(-c3cccs3)cc(C(F)(F)F)c12	-0.103 °C

Next part

Structure (SMILES) | thermal shift ΔTm of Mpro
Nc1nc(N)c(N=O)c(OCC2CCCCC2)n1 | 0.0312 °C
NC(=O)c1cnccn1 [Pyrazinamide] | 0.0494 °C
CC(C)(C)CC(C)(C)c1cc(Cc2cc(C(C)(C)CC(C)(C)C)cc(-n3nc4ccccc4n3)c2O)c(O)c(-n2nc3ccccc3n2)c1 [Bisoctrizole] | 0.404 °C
COc1cc2nc(N3CCCC3)nc(NCCCCCN3CCCC3)c2cc1OC | -0.153 °C
CC(C)C[C@H](NC(=O)[C@H](Cc1ccccc1)C[C@@H](O)[C@H](Cc1ccccc1)NC(=O)OC(C)(C)C)C(=O)N[C@@H](Cc1ccccc1)C(N)=O | 0.0406 °C
Cc1cnc(-c2ccccc2C(C)C)nc1NCc1ccc(-n2ccnn2)cc1 | -0.189 °C
CSc1nc2cc(Cl)c(Oc3cccc(Cl)c3Cl)cc2[nH]1 [Triclabendazole] | 0.0676 °C
Cc1ccccc1N1CCN(CCc2nnc3n2CCCC3)CC1 [Dapiprazole Hydrochloride] | -0.0949 °C
Nc1ccc(-c2ccc3ncc4ccc(=O)n(-c5cccc(C(F)(F)F)c5)c4c3c2)cn1 [Torin 2] | -0.342 °C
CCCCCCCCCCCCCCCCn1cc[n+](Cc2ccccc2)c1C | -0.241 °C
O=C1[C@@H]2[C@H]3CC[C@H](C3)[C@@H]2C(=O)N1C[C@@H]1CCCC[C@H]1CN1CCN(c2nsc3ccccc23)CC1 [Lurasidone hydrochloride] | -0.0834 °C
COc1cccc2c1C(=O)c1c(O)c3c(c(O)c1C2=O)C[C@@](O)(C(=O)CO)C[C@@H]3O[C@H]1C[C@H](N)[C@@H](O)[C@H](C)O1 [Epirubicin HCl] | 0.249 °C
CCCN(CCC)CCc1cccc2c1CC(=O)N2 [Ropinirole HCl] | 0.205 °C
CN[C@H]1C(=O)N[C@@H]2Cc3ccc(cc3)Oc3cc4cc(c3O[C@@H]3O[C@H](C(=O)O)[C@@H](O)[C@H](O)[C@H]3NC(=O)CCCCCCCCC(C)C)Oc3ccc(cc3Cl)[C@@H](O)[C@@H]3NC(=O)[C@H](NC(=O)[C@@H]4NC(=O)[C@@H](NC2=O)c2cc(cc(O)c2Cl)Oc2cc1ccc2O)c1ccc(O)c(c1)-c1c(O[C@H]2O[C@H](CO)[C@@H](O)[C@H](O)[C@@H]2O)cc(O)cc1[C@@H](C(=O)O)NC3=O [Dalbavancin Impurity] | 0.0397 °C
NC(=O)c1cccc(-c2cccc(OC(=O)NC3CCCCC3)c2)c1 | -0.00949 °C
COC[C@H]1OC(=O)c2coc3c2[C@@]1(C)C1=C(C3=O)[C@@H]2CCC(=O)[C@@]2(C)C[C@H]1OC(C)=O [Wortmannin] | 0.327 °C
NCCOc1ccc(Cl)cc1C(=O)Nc1ccc([N+](=O)[O-])cc1Cl [HJC0152 hydrochloride] | -0.0037 °C
CC(=O)O[C@H]1C(=O)[C@@]2(C)[C@H]([C@H](OC(=O)c3ccccc3)[C@]3(O)C[C@H](OC(=O)[C@H](O)[C@@H](NC(=O)c4ccccc4)c4ccccc4)C(C)=C1C3(C)C)[C@]1(OC(C)=O)CO[C@@H]1C[C@@H]2O [Paclitaxel] | -0.203 °C
COc1c(-c2ccc3cc(NS(C)(=O)=O)ccc3c2)cc(-n2ccc(=O)[nH]c2=O)cc1C(C)(C)C [Dasabuvir] | -0.49 °C
COC(=O)/C=C/C(=O)OCCN1C(=O)CCC1=O [Diroximel Fumarete] | 0.0913 °C
CN1CCC(Nc2nc(Nc3ccc(Oc4ccccc4)cc3)c3c(=O)[nH]cc(Br)c3n2)CC1 | -0.0185 °C
O=C([O-])[C@H](O)[C@@H](O)[C@H](O)[C@H](O)CO.O=C([O-])[C@H](O)[C@@H](O)[C@H](O)[C@H](O)CO.[Ca+2] [Calcium gluconate] | 0.111 °C
